Values from PubChem BioAssay AID504808 (Drosophila RNAi Screening Center, 2011)
The deposit covers about 21,000 reagents; this is an unselected part of those that have a named target and a result. In the full data, 18 (0.084%) were called active. 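Raw counts without plate normalisation, one of two replicates; the ratio scores behind the calls were not deposited.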 Reagents against one gene are numbered here. Names joined by + are all predicted targets of the reagent. Not stated in the record: the amount of reagent, the time to read-out.

Screen: 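Fly genes required to hold E2F transcription in check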 (primary screen)
System: Drosophila S2 cells
Reagent: long dsRNA against Drosophila genes
Read-out: 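Firefly luciferase driven by E2F sites, normalised to Renilla luciferase on the same minimal promoter, measured by plate reader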
Scale: E2F firefly: higher = more E2F reporter activity; Renilla normaliser: higher = more normaliser reporter signal
Rule for the call: 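a knock-down counted as active when the firefly/Renilla E2F signal rose above 50%, a threshold chosen arbitrarily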

For Kua (GeneID 35300), the entry reads E2F firefly, rep 1 = 1.01e5; Renilla normaliser, rep 1 = 4202; inactive.
Against Cpr67Fa2 (GeneID 39224), the entry reads E2F firefly, rep 1 = 1.23e5; Renilla normaliser, rep 1 = 6530; inactive.
After knock-down of Ugt37B1 (GeneID 53584), the record shows E2F firefly, rep 1 = 1.55e5; Renilla normaliser, rep 1 = 5422; inactive.
CG3165 (GeneID 33503) scored E2F firefly, rep 1 = 81730; Renilla normaliser, rep 1 = 3581; inactive.
Depletion of spen (GeneID 44205) gave: E2F firefly, rep 1 = 81436; Renilla normaliser, rep 1 = 3789; inactive.
CG4483 (GeneID 39057) showed E2F firefly, rep 1 = 49862; Renilla normaliser, rep 1 = 3184; inactive.
eEF1alpha1 (GeneID 36271) gave E2F firefly, rep 1 = 1.05e5; Renilla normaliser, rep 1 = 4620; inactive.
Knock-down of CG30099 (GeneID 36818) resulted in: E2F firefly, rep 1 = 1.52e5; Renilla normaliser, rep 1 = 5103; inactive.
With knock-down of CG17782 (GeneID 42912), the record shows E2F firefly, rep 1 = 95508; Renilla normaliser, rep 1 = 5778; inactive.
For kug (GeneID 40191), the entry reads E2F firefly, rep 1 = 77650; Renilla normaliser, rep 1 = 4082; inactive.
With knock-down of Sytbeta (GeneID 39630) #1 the results were E2F firefly, rep 1 = 1.44e5; Renilla normaliser, rep 1 = 8739; inactive.
Sytbeta (GeneID 39630) #2 showed E2F firefly, rep 1 = 1.81e5; Renilla normaliser, rep 1 = 8312; inactive.
After knock-down of Eglp4 (GeneID 37739), the record shows E2F firefly, rep 1 = 1.05e5; Renilla normaliser, rep 1 = 4476; inactive.
After knock-down of CG7963 (GeneID 41001), the screen gave E2F firefly, rep 1 = 1.39e5; Renilla normaliser, rep 1 = 5880; inactive.
Knock-down of COX6AL2 + Ir75d resulted in: E2F firefly, rep 1 = 1.26e5; Renilla normaliser, rep 1 = 5287; inactive.
For Osi21 (GeneID 34566), the entry reads E2F firefly, rep 1 = 1.70e5; Renilla normaliser, rep 1 = 5926; inactive.
CG11406 (GeneID 37877) #1 showed E2F firefly, rep 1 = 1.28e5; Renilla normaliser, rep 1 = 5697; inactive.
Knock-down of CG11406 (GeneID 37877) #2 gave: E2F firefly, rep 1 = 1.24e5; Renilla normaliser, rep 1 = 4685; inactive.
With knock-down of Myo10A (GeneID 32028) #1 the results were E2F firefly, rep 1 = 43630; Renilla normaliser, rep 1 = 3057; inactive.
Silencing of Myo10A (GeneID 32028) #2 resulted in: E2F firefly, rep 1 = 1.30e5; Renilla normaliser, rep 1 = 5286; inactive.
Against IntS12 (GeneID 43227), the values are E2F firefly, rep 1 = 1.66e5; Renilla normaliser, rep 1 = 7746; inactive.
Against Rad60 (GeneID 42748), the values are E2F firefly, rep 1 = 1.08e5; Renilla normaliser, rep 1 = 5214; inactive.
Silencing of Gr59c (GeneID 192481) came out at: E2F firefly, rep 1 = 1.00e5; Renilla normaliser, rep 1 = 4036; inactive.
Nepl5 (GeneID 33892) showed E2F firefly, rep 1 = 93870; Renilla normaliser, rep 1 = 3681; inactive.
After knock-down of ND-18 (GeneID 32936), the screen gave E2F firefly, rep 1 = 1.34e5; Renilla normaliser, rep 1 = 6384; inactive.
For Lap1 (GeneID 36670), the entry reads E2F firefly, rep 1 = 88792; Renilla normaliser, rep 1 = 4258; inactive.
Dhc36C (GeneID 35061) scored E2F firefly, rep 1 = 93231; Renilla normaliser, rep 1 = 4371; inactive.
Against Nubp1 (GeneID 35000), the entry reads E2F firefly, rep 1 = 80937; Renilla normaliser, rep 1 = 194; inactive.

No new results follow: 2 of the entries above.
Sytbeta (GeneID 39630) #2 → E2F firefly, rep 1: 1.81e5; Renilla normaliser, rep 1: 8312; Outcome: inactive
Eglp4 (GeneID 37739) → E2F firefly, rep 1: 1.05e5; Renilla normaliser, rep 1: 4476; Outcome: inactive
